PubChem BioAssay AID1224830 | NIAID – 2016

- Test: 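Genes whose knock-down alters the TNF-alpha reporter response to LPS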 (primary screen)
- Cell system: human THP-1 monocytic leukaemia cells, TNF dual-luciferase reporter clone, PMA-differentiated to macrophage-like cells
- Reagents: siRNA pool against human genes, 50 nM
- Timing: LPS for 4 h, given about 3 days after siRNA transfection
- Conditions: bacterial LPS (TLR4 ligand), 10 ng/ml
- Read-out: 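TNF firefly reporter luminescence divided by renilla, normalised to the plate median, then turned into a robust z-score for each replicate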
- Reading the numbers: TNF reporter robust z-score: higher = stronger TNF reporter response to LPS
- Active means: 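Each well counts as active if its z-score is over 2.8 or under -1.5; controls are left without a call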
In all, the deposit lists about 18,000 reagents; below is a part drawn at random. About 2,900 of them (16%) were called active. 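Calls are made per well; low scores hint the gene aids the LPS response, high scores that it dampens it.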 Repeated entries: four replicate wells of each siRNA pool.

gene symbol | PubChem SID | TNF reporter robust z-score | call
SPMIP4 | SID315462016 | -0.43 | inactive
SPMIP4 | SID315462016 | -0.42 | inactive
SPMIP4 | SID315462016 | -0.77 | inactive
SPMIP4 | SID315462016 | 0 | inactive
ANKRD36 | SID315464358 | 2.99 | active
ANKRD36 | SID315464358 | -0.37 | inactive
ANKRD36 | SID315464358 | -0.2 | inactive
ANKRD36 | SID315464358 | -0.45 | inactive
FBN2 | SID315448643 | 1.51 | inactive
FBN2 | SID315448643 | 1.56 | inactive
FBN2 | SID315448643 | 1.28 | inactive
FBN2 | SID315448643 | 1.2 | inactive
GAS7 | SID315452624 | 0.01 | inactive
GAS7 | SID315452624 | 0.22 | inactive
GAS7 | SID315452624 | 0.64 | inactive
GAS7 | SID315452624 | 0.06 | inactive
FBXL14 | SID315462229 | 1 | inactive
FBXL14 | SID315462229 | 2.7 | inactive
FBXL14 | SID315462229 | 3.12 | active
FBXL14 | SID315462229 | -2.04 | active
CHRNA3 | SID315447926 | -0.07 | inactive
CHRNA3 | SID315447926 | -0.28 | inactive
CHRNA3 | SID315447926 | 0.02 | inactive
CHRNA3 | SID315447926 | -0.97 | inactive
GUCA1C | SID315453431 | 0.61 | inactive
GUCA1C | SID315453431 | -0.36 | inactive
GUCA1C | SID315453431 | -0.51 | inactive
GUCA1C | SID315453431 | -0.59 | inactive
ZNF699 | SID315464336 | -1.36 | inactive
ZNF699 | SID315464336 | -1.26 | inactive
ZNF699 | SID315464336 | -1.3 | inactive
ZNF699 | SID315464336 | -1.42 | inactive
PREPL | SID315453399 | -0.15 | inactive
PREPL | SID315453399 | -0.11 | inactive
PREPL | SID315453399 | -0.22 | inactive
PREPL | SID315453399 | 1.09 | inactive
MAP3K12 | SID315452304 | 0 | inactive
MAP3K12 | SID315452304 | 0.99 | inactive
MAP3K12 | SID315452304 | 0.36 | inactive

In a second layout: entries from further up.
GAS7 [SID315452624]
- TNF reporter robust z-score: 0.22
- call: inactive

GAS7 [SID315452624]
- TNF reporter robust z-score: 0.64
- call: inactive

GAS7 [SID315452624]
- TNF reporter robust z-score: 0.06
- call: inactive

FBXL14 [SID315462229]
- TNF reporter robust z-score: 1
- call: inactive

FBXL14 [SID315462229]
- TNF reporter robust z-score: 2.7
- call: inactive

FBXL14 [SID315462229]
- TNF reporter robust z-score: 3.12
- call: active

FBXL14 [SID315462229]
- TNF reporter robust z-score: -2.04
- call: active

CHRNA3 [SID315447926]
- TNF reporter robust z-score: -0.07
- call: inactive

The results go on:
gene symbol | PubChem SID | TNF reporter robust z-score | call
MAP3K3 | SID315449938 | -0.68 | inactive
MAP3K3 | SID315449938 | -1.55 | active
MAP3K3 | SID315449938 | -1.07 | inactive
MAP3K3 | SID315449938 | -1.19 | inactive
SLC9A2 | SID315451486 | 0.09 | inactive
SLC9A2 | SID315451486 | -0.93 | inactive
SLC9A2 | SID315451486 | -1.51 | active
SLC9A2 | SID315451486 | -0.82 | inactive
OR1A1 | SID315452525 | -0.15 | inactive
OR1A1 | SID315452525 | 1.08 | inactive
OR1A1 | SID315452525 | -0.63 | inactive
OR1A1 | SID315452525 | 0.88 | inactive
HSPB8 | SID315455777 | -0.97 | inactive
HSPB8 | SID315455777 | -0.02 | inactive
HSPB8 | SID315455777 | -0.5 | inactive
HSPB8 | SID315455777 | 0.08 | inactive
MYB | SID315450090 | -0.84 | inactive
MYB | SID315450090 | -0.28 | inactive
MYB | SID315450090 | -0.53 | inactive
MYB | SID315450090 | 0.15 | inactive
WNT5A | SID315452144 | -0.41 | inactive
WNT5A | SID315452144 | -1.81 | active
WNT5A | SID315452144 | -1.08 | inactive
WNT5A | SID315452144 | -0.76 | inactive
LRRC61 | SID315459126 | -0.44 | inactive
LRRC61 | SID315459126 | 0.86 | inactive
LRRC61 | SID315459126 | -0.76 | inactive
LRRC61 | SID315459126 | -0.6 | inactive
TRIM43B | SID315465139 | -1.61 | active
TRIM43B | SID315465139 | -0.66 | inactive
TRIM43B | SID315465139 | -1.15 | inactive
TRIM43B | SID315465139 | 0.21 | inactive
PRPF8 | SID315454220 | -0.49 | inactive
PRPF8 | SID315454220 | 0.28 | inactive
PRPF8 | SID315454220 | -0.88 | inactive
PRPF8 | SID315454220 | -1.34 | inactive
UBE2C | SID315454571 | 2.75 | inactive
UBE2C | SID315454571 | -0.8 | inactive
UBE2C | SID315454571 | 0.21 | inactive
UBE2C | SID315454571 | -0.01 | inactive
SPTBN1 | SID315451622 | 0.31 | inactive
SPTBN1 | SID315451622 | 0.01 | inactive
SPTBN1 | SID315451622 | -1.03 | inactive
SPTBN1 | SID315451622 | -1.37 | inactive
SCN1B | SID315451308 | 2.24 | inactive
SCN1B | SID315451308 | 3.8 | active
SCN1B | SID315451308 | 1.95 | inactive
SCN1B | SID315451308 | 3.86 | active
ESF1 | SID315456790 | -0.48 | inactive
ESF1 | SID315456790 | 0.81 | inactive
ESF1 | SID315456790 | -0.02 | inactive
ESF1 | SID315456790 | 1.15 | inactive
SLC2A13 | SID315461216 | -0.78 | inactive
SLC2A13 | SID315461216 | -0.42 | inactive
SLC2A13 | SID315461216 | -0.68 | inactive
SLC2A13 | SID315461216 | -0.11 | inactive
SPATS2L | SID315455613 | -0.47 | inactive
SPATS2L | SID315455613 | 0 | inactive
SPATS2L | SID315455613 | -0.35 | inactive
SPATS2L | SID315455613 | 0.85 | inactive
OR8U1 | SID315463158 | 0.03 | inactive
OR8U1 | SID315463158 | 0.4 | inactive
OR8U1 | SID315463158 | 0.42 | inactive
OR8U1 | SID315463158 | -0.06 | inactive
ABHD15 | SID315461361 | 0.6 | inactive
ABHD15 | SID315461361 | 1.35 | inactive
ABHD15 | SID315461361 | 0.01 | inactive
ABHD15 | SID315461361 | 0.89 | inactive
ZNF773 | SID315464345 | 0.01 | inactive
ZNF773 | SID315464345 | 0.29 | inactive
ZNF773 | SID315464345 | 1.14 | inactive
ZNF773 | SID315464345 | -0.56 | inactive
